In PubChem BioAssay AID493014 (National Center for Advancing Translational Sciences (NCATS), 2011):
In all, about 340,000 compounds went through this assay and about 170 (0.05%) were called active. The shares of active, inactive and inconclusive entries below differ from those in the screen. The call rests on the fitted dose curve; in most records, active means well fitted inhibition curve with a large enough effect in the signal ratio, with a control signal flat (not every such curve was filed as active); inconclusive means small, poorly fitted or top-dose-only effect, or effect the other way, or a change in a side signal; inactive means flat fitted curve, though single readings scatter; the % refers to the signal ratio. A potency beside an inconclusive call is a rough fit, not a confirmed value.

Assay: qHTS Assay to Find Inhibitors of Chronic Active B-Cell Receptor Signaling;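 on activity change, negative = inhibition: plate controls were basal doxycycline-induced cells for no effect and cells given 10 µM MG132 for full effect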
Details: ABC-DLBCL IkBa-CBG/CBR reporter, luminescence ratio (green luciferase fused to IkBa over red control in TMD8 lymphoma cells), 4 h; activity change, negative = inhibition: at 46.1 µM (top of the series)
How it was run: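 TMD8 ABC-DLBCL cells carrying doxycycline-inducible green luciferase fused to IkappaBalpha plus unfused red luciferase were exposed to compounds (up to 46 uM) for 4 hrs at 37C. Activity came from the overlap-corrected green/red luminescence ratio.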
Potency means the concentration at half of the fitted maximal effect.

Structure (SMILES) | activity change, negative = inhibition | Potency
COc1ccccc1-c1cc(C(=O)NCc2ccccc2)c2c(-c3ccc(C)cc3)[nH]nc2n1 | inconclusive: 29.7% | 
COC(=O)c1ccccc1NC(=S)NC(=O)C1CCCCC1 | inactive | 
Cc1ccc2nc(-c3ccncc3)[nH]c2c1 | inconclusive: -3.2% | 
CC(C)c1ccc(NS(=O)(=O)c2ccc3c(c2)NC(=O)CO3)cc1 | inactive | 
Cc1cc(C)c(NN=c2c(=O)c3ccccc3c2=O)c(C)c1 | inconclusive: 14.6% | 
O=C(CCSCc1ccccc1Cl)NCc1ccc(F)cc1Cl | inactive | 
COc1cc2c(cc1OC)C(=O)N1[C@H]3c4cc(C)ccc4OC[C@@H]3[C@H](c3ccccc3)[C@]1(C)C(=O)N2 | inconclusive: -2.2% | 
COc1ccccc1/C=C1\SC(=S)N(CCC(=O)Nc2cccc(O)c2)C1=O |  | inconclusive: 15.8 µM [falling, partial curve]
O=C(c1ccccc1)N1CCCCC(Sc2nnnn2-c2ccccc2)C1=O (stereo unspecified) | inactive | 
C[C@@H](C(=O)NCCc1c[nH]c2ccccc12)[C@H]1C[C@]1(C)[C@H](NC(=O)OCc1ccccc1)c1ccccc1 |  | inconclusive: 20.6 µM [falling, single point]
CCN1CCN(c2ccc(S(=O)(=O)N3CCCCC3)cc2NC(=O)c2ccc([N+](=O)[O-])s2)CC1 | inactive | 
CC(NC(=O)CSc1nnc(-c2cccnc2)n1N)c1ccccc1 (stereo unspecified) | inconclusive: 0.499% | 
Cc1ccc(S(=O)(=O)N2CCCCCC2)cc1[N+](=O)[O-] | inactive | 
CN(CCC1CCOCC1)C(=O)CC1C(=O)NCCN1Cc1ccoc1 (stereo unspecified) | inconclusive: 2.14% | 
CC(=O)N(C)c1ccc(NC(=O)Nc2ccc(C)cc2)cc1 | inconclusive: -0.108% | 
Cc1nnnn1/C(=C\c1ccccc1)C(=O)OCC(=O)Nc1cccc(S(=O)(=O)N(C)C)c1 | inconclusive: -17.8% | 
Cc1cc2cc(CNS(=O)(=O)c3ccc4ccccc4c3)ccc2n1C | inactive | 
O=c1[nH]c(CN2CCN(S(=O)(=O)/C=C/c3ccccc3)CC2)nc2ccccc12 | inactive | 
COc1cccc(CNc2ccc3[nH]c(=O)[nH]c3c2)c1OCc1ccccc1 |  | inconclusive: 11.2 µM [falling, partial curve]
Cc1cc(NCc2ccccc2)nc(-c2ccccc2O)n1 | inactive | 
Cn1c(CO)cnc1SCc1ccc(Cl)cc1 |  | inconclusive: 14.1 µM [falling, partial curve, poor fit]

Structure (SMILES) | activity change, negative = inhibition | Potency
O=C(COC(=O)[C@H](Cc1ccccc1)NC(=O)c1cccs1)Nc1cc(F)ccc1F | inconclusive: -2.42% | 
O=C(COCc1cc(-c2ccc(F)cc2)on1)Nc1cc(F)ccc1F |  | inconclusive: 22.4 µM [falling, single point]
Cc1ccc(C)c(NS(=O)(=O)c2ccc3[nH]c(=O)[nH]c3c2)c1 | inconclusive: -21.5% | 
C/C(=N\NC(=O)COc1cc(C)cc(C)c1)c1ccc(N2CCOCC2)cc1 | inconclusive: -21.5% | 
COc1ccccc1CN(C)C(=O)c1ccc2c(c1)NC(=O)CS2 |  | inconclusive: 6.51 µM [falling, partial curve, poor fit]
Cc1nc(C/C(=N\Nc2ccccc2)c2ccc(O)cc2O)cs1 | inactive | 
Cc1nc(CSc2ccc(Cl)cc2)cs1 | inconclusive: 2.09% | 
O=C(Nc1cccc(F)c1)c1ccc(Br)o1 | inconclusive: 11.9% | 
COc1ccc(NC2CCCN(C(=O)CN3CCOC3=O)C2)cc1OC (stereo unspecified) |  | inconclusive: 25.1 µM [falling, single point]
Cc1ccccc1Nc1nc(N)nc(COC(=O)c2cccc(S(=O)(=O)NCc3ccccc3)c2)n1 | inconclusive: 7.07% | 
COc1ccccc1/C=C/C=N/NC(=O)c1cc(-c2ccco2)[nH]n1 |  | inconclusive: 35.5 µM [falling, single point]
Cc1cc(SCC(=O)Nc2c(C)n(C)n(-c3ccccc3)c2=O)nc2ccccc12 | inactive | 
O=[N+]([O-])c1ccc(-c2nnc(-c3ccccc3)c(N3CCOCC3)n2)cc1 |  | inconclusive: 6.51 µM [falling, single point]
CCC(CC)C1C(C#N)=C(N)SC(N)=C1C#N | inconclusive: -13.8% | 
CCOC(=O)c1c(C)c(C(=O)NCC2CCCO2)c(C)n1C (stereo unspecified) | inconclusive: -0.583% | 
Cc1csc(=O)n1CC(=O)OC(C)C(=O)Nc1cccc(Cl)c1 (stereo unspecified) | inconclusive: 15% | 
Cc1nc(CN(C)C(=O)c2cc(COc3c(F)cccc3F)on2)cs1 | inconclusive: -27.8% | 
COc1cc2c(cc1OC)C(c1ccccc1)CC2=O (stereo unspecified) | inconclusive: -8.86% | 
COc1ccccc1N1CCN(CCN(C(=O)C2CCCCC2)c2ccccn2)CC1 | inactive | 
CCc1ccc(NC(=O)c2sc3nc4n(c(=O)c3c2C)CCC4)cc1 | inconclusive: 7.64% | 
O=C(C1CCN(S(=O)(=O)c2cccc3nsnc23)CC1)N1CCn2c1nc1ccccc12 | inconclusive: -9.08% | 

Single values from the entries so far:
Under activity change, negative = inhibition, Cc1nnnn1/C(=C\c1ccccc1)C(=O)OCC(=O)Nc1cccc(S(=O)(=O)N(C)C)c1 is listed with inconclusive: -17.8%
Under activity change, negative = inhibition, Cc1cc(C)c(NN=c2c(=O)c3ccccc3c2=O)c(C)c1 is listed with inconclusive: 14.6%

Later entries

Structure (SMILES) | activity change, negative = inhibition | Potency
CCCCc1nnc(NC(=O)c2oc3ccccc3c2C)s1 | inconclusive: 11.2% | 
COCCn1c(=NC(=O)c2ccc3c(c2)OCCO3)sc2cc(S(N)(=O)=O)ccc21 | inconclusive: -2.12% | 
COc1ccc(-c2sc(Nc3ccc(F)c(F)c3F)nc2CCC(=O)NN)cc1 | inconclusive: 7.18% | 
OC(COc1ccccc1)CN1CCCC1 (stereo unspecified) | inactive | 
CSc1ccccc1OCc1cc(C(=O)NC(C)Cn2cncn2)no1 (stereo unspecified) |  | inconclusive: 15.8 µM [falling, single point]
CCCC1C2C(=O)N(c3ccccc3OCC)C(=O)C2ON1c1ccccc1 (stereo unspecified) | inconclusive: -15.9% | 
CCNC(=O)/C(C#N)=C/c1c(N2CCN(c3ccccc3)CC2)nc2ccccn2c1=O | inconclusive: 12.7% | 
CCOC(=O)c1c(C)[nH]c(C)c1C(=O)COC(=O)c1cc(OC)cc(OC)c1 |  | inconclusive: 7.94 µM [falling, partial curve, poor fit]
CC(C)(C)c1ccc(S(=O)(=O)NCCc2ccncc2)cc1 | inactive | 
CCOC(=O)c1cnn(-c2cc(Oc3cccc(C)c3)ncn2)c1N | inconclusive: 0.987% | 
Cn1c(N)c(C(=O)Nc2cccc(Cl)c2)c(=O)n(C)c1=O | inactive | 
O=C(NCC(c1ccco1)N1CCN(c2ccc(F)cc2)CC1)C(=O)NC1CCCC1 (stereo unspecified) | inconclusive: 3.64% | 
COc1cc2c3c(c1)c(N=NC(N)=S)c(O)n3C(C)(C)C=C2C |  | inconclusive: 4.47 µM [falling, single point]
Oc1ccc(C2C(c3ccccc3)=NN=C(c3ccc(Cl)cc3)N2O)c(O)c1 (stereo unspecified) |  | inconclusive: 9.2 µM [falling, partial curve]
Cc1cc(C)n(-c2ccc(C(=O)OC(C)C)cc2)n1 |  | inconclusive: 35.5 µM [falling, single point]
Cc1cccc(N2CCN(C(=O)c3noc4c3COc3ccc(C)cc3-4)CC2C)c1 (stereo unspecified) |  | inconclusive: 3.55 µM [falling, single point]
O=C(c1ccco1)N1CCN=C1SCc1c(F)cccc1Cl | inconclusive: -1.21% | 
O=C(N/N=C/c1cccc([N+](=O)[O-])c1)c1cccc2cc[nH]c12 | inactive | 
CS(=O)(=O)c1ccc(-c2csc(-c3cccnc3)n2)cc1 | inconclusive: 4.21% | 
O=C(NCC(c1ccco1)N1CCCC1)c1cc2cc(Cl)ccc2o1 (stereo unspecified) | inconclusive: 3.02% | 
Cc1ccc2c(c1)c1c(n2CC(O)CNC(CO)(CO)CO)CCCC1 (stereo unspecified) | inactive | 

Structural class, the compounds so far with a halogen
Structure (SMILES) | activity change, negative = inhibition | Potency
O=C(CCSCc1ccccc1Cl)NCc1ccc(F)cc1Cl | inactive | 
Cn1c(CO)cnc1SCc1ccc(Cl)cc1 |  | inconclusive: 14.1 µM [falling, partial curve, poor fit]
O=C(COC(=O)[C@H](Cc1ccccc1)NC(=O)c1cccs1)Nc1cc(F)ccc1F | inconclusive: -2.42% | 
O=C(COCc1cc(-c2ccc(F)cc2)on1)Nc1cc(F)ccc1F |  | inconclusive: 22.4 µM [falling, single point]
Cc1nc(CSc2ccc(Cl)cc2)cs1 | inconclusive: 2.09% | 
O=C(Nc1cccc(F)c1)c1ccc(Br)o1 | inconclusive: 11.9% | 
Cc1csc(=O)n1CC(=O)OC(C)C(=O)Nc1cccc(Cl)c1 (stereo unspecified) | inconclusive: 15% | 
Cc1nc(CN(C)C(=O)c2cc(COc3c(F)cccc3F)on2)cs1 | inconclusive: -27.8% | 
COc1ccc(-c2sc(Nc3ccc(F)c(F)c3F)nc2CCC(=O)NN)cc1 | inconclusive: 7.18% | 
Cn1c(N)c(C(=O)Nc2cccc(Cl)c2)c(=O)n(C)c1=O | inactive | 
O=C(NCC(c1ccco1)N1CCN(c2ccc(F)cc2)CC1)C(=O)NC1CCCC1 (stereo unspecified) | inconclusive: 3.64% | 
Oc1ccc(C2C(c3ccccc3)=NN=C(c3ccc(Cl)cc3)N2O)c(O)c1 (stereo unspecified) |  | inconclusive: 9.2 µM [falling, partial curve]
O=C(c1ccco1)N1CCN=C1SCc1c(F)cccc1Cl | inconclusive: -1.21% | 
O=C(NCC(c1ccco1)N1CCCC1)c1cc2cc(Cl)ccc2o1 (stereo unspecified) | inconclusive: 3.02% | 

Further records:

Structure (SMILES) | activity change, negative = inhibition | Potency
O=C(COc1ccccc1O)N1CCN(C(=O)c2ccco2)CC1 | inconclusive: 19.7% | 
COc1cc(C(C(=O)NC2CCCCC2)N(Cc2cccs2)C(=O)Cc2c[nH]c3ccccc23)cc(OC)c1OC (stereo unspecified) | inconclusive: -0.306% | 
O=C1CN(C(=O)c2ccccc2[N+](=O)[O-])C(c2ccccc2)c2cc(Br)ccc2N1 (stereo unspecified) | inconclusive: -0.0809% | 
S=C(c1cn(CCOc2ccccc2)c2ccccc12)N1CCCC1 |  | inconclusive: 29.1 µM [falling, single point]
CN1CCN(CC(=O)N2c3ccccc3C(C)(c3ccc(Cl)cc3)CC2(C)C)CC1 (stereo unspecified) | inconclusive: -16.9% | 
COc1ccc(Cn2c(=O)[nH]c3cc(C(=O)N4CCN(c5ccccn5)CC4)ccc3c2=O)cc1 | inactive | 
Cc1cc(OCCSc2nnc(-c3cccs3)n2C)ccc1Cl | inconclusive: -7.71% | 
CCCN1C(=O)/C(=N\OCC(=O)Nc2ccc(C(C)C)cc2)c2ccccc21 | inconclusive: -8.08% | 
COc1ccc2oc(-c3cccc(NC(=O)CSc4ccc(Cl)cc4)c3)nc2c1 | inconclusive: 14.1% | 
COc1ccc(-c2cc(C(=O)Nc3c(C)n(C)n(-c4ccccc4)c3=O)c3ccccc3n2)cc1OC | inconclusive: -73% | 
O=C(O)C1CCCN1c1ncnc2ccccc12 (stereo unspecified) | inconclusive: -1.5% | 
O=C1N2CCSC2=NC1(Nc1ccccn1)C(F)(F)F (stereo unspecified) | inconclusive: 12.4% | 
O=C(NNc1ccccc1[N+](=O)[O-])Nc1cccc(Cl)c1 | inconclusive: -14.5% | 
O=C(NCc1cccs1)C1CCCN(S(=O)(=O)c2cnc[nH]2)C1 (stereo unspecified) | inconclusive: 21.8% | 
NC(=O)COC(=O)c1cc(-c2ccco2)nc2ccccc12 |  | inconclusive: 11.2 µM [rising, partial curve, poor fit]
O=C(CSc1ncn[nH]1)Nc1nsc(-c2ccccc2)n1 |  | inconclusive: 18.4 µM [falling, single point]
NC(=O)CC(NC(=O)c1ccc(Br)cc1)c1ccc(N2CCC(Cc3ccccc3)CC2)c([N+](=O)[O-])c1 (stereo unspecified) | inactive | 
Cc1c(Br)c(=O)oc2c(Br)c(O)ccc12 | inconclusive: 3.41% | 
